Results are given in words; binding and its absence hold for the method and conditions named. Binding seen in cells or lysates may run through a third protein. A result given as binding can be weak or reduced; the word gives no strength. For some assays here: Where a sequence is shown, tags or fusion partners need not be part of it.
Experiments:
[1] = target: T1, FLAG-TRIP6, full length (WT) (human) (UniProt Q15654); assay: co-IP
T1 sequence: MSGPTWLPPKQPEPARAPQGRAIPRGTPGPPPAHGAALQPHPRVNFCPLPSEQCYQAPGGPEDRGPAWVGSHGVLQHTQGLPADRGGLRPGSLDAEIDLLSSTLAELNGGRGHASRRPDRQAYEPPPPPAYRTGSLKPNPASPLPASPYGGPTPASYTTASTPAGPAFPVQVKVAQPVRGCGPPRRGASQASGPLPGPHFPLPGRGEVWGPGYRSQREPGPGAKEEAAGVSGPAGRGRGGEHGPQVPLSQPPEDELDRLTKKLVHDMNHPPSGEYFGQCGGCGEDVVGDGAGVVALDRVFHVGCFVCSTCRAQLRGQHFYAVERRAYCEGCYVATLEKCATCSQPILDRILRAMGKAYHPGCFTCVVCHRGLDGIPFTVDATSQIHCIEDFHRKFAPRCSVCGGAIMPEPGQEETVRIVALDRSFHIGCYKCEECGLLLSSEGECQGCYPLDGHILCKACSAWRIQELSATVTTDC

[2] = target: T2, TRIP6, endogenous (human (endogenous in MCF10A)) (UniProt Q15654); assay: co-IP
T2 sequence: T1 sequence

Row | binding [1] | binding [2] | Substance
1 | binds | – | N-terminal region of LATS2 (LATS2-GFP deletion mutant) (domain or fragment)
2 | – | binds | vinculin, endogenous (from UniProt P18206-2)

From doi:10.1101/182204
